# Assay results as given in patent US20250339569A1 (priority 2021, published 2025).
# For part of these data: Strings that start with PEPTIDE1 are HELM notation: dots part the residues, brackets hold end groups and non-standard residues. Starred links: 1 amine or outer side, 2 acyl side, 3 side chain; linkers in the order of their positions; H or OH if unused. Positions of bridges follow the written chain, without caps; N, C: chain ends. Non-standard residues stand in square brackets, D forms with d. *: point of attachment. NH(CH2)5NHDOTA = O=C(O)CN1CCN(CC(=O)O)CCN(CC(=O)NCCCCCN*)CCN(CC(=O)O)CC1; NH(CH2)3NHDOTA = O=C(O)CN1CCN(CC(=O)O)CCN(CC(=O)NCCCN*)CCN(CC(=O)O)CC1; NH(1-deoxy-D-glucityl) = OC[C@@H](O)[C@@H](O)[C@H](O)[C@@H](O)CN*; DOTA = O=C(O)CN1CCN(CC(=O)O)CCN(CC(=O)*)CCN(CC(=O)O)CC1; X6 = O=C(O)CCC(=O)Nc1cccc(C[C@H](N[*:1])C(=O)[*:2])c1; mXylylene = c1cc(C[*:1])cc(C[*:2])c1; X2 = O=C(CN1CCC(N[*:1])CC1)[*:2]; Dap = NC[C@H](N)C(=O)O; AEEA = NCCOCCOCC(=O)O
# Experiments:
# [1] = general procedure: Fmoc solid-phase peptide synthesis; Trityl PS resin; settings: whole synthesis, scale 50 μmol
# [2] = general procedure: Fmoc solid-phase peptide synthesis; Rink amide resin; settings: whole synthesis
# [3] = general procedure: Fmoc solid-phase peptide synthesis; low loaded Rink amide resin; settings: whole synthesis, scale 50 μmol, bicyclic
substance,measurement,setting,value
Ac-VYCE[dP]DWLTWAC-{NH(CH2)5NHDOTA} (linker 3-12 via mXylylene; SMILES CC(=O)N[C@H](C(=O)N[C@@H](Cc1ccc(O)cc1)C(=O)N[C@H]1CSCc2cccc(c2)CSC[C@@H](C(=O)NCCCCCNC(=O)CN2CCN(CC(=O)O)CCN(CC(=O)O)CCN(CC(=O)O)CC2)NC(=O)[C@H](C)NC(=O)[C@H](Cc2c[nH]c3ccccc23)NC(=O)[C@H]([C@@H](C)O)NC(=O)[C@H](CC(C)C)NC(=O)[C@H](Cc2c[nH]c3ccccc23)NC(=O)[C@H](CC(=O)O)NC(=O)[C@H]2CCCN2C(=O)[C@H](CCC(=O)O)NC1=O)C(C)C),isolated yield,[1],6.7%
Ac-VYCE[dP]DWLTWAC[AEEA]K(DOTA)-NH2 (linker 3-12 via mXylylene; SMILES CC(=O)N[C@H](C(=O)N[C@@H](Cc1ccc(O)cc1)C(=O)N[C@H]1CSCc2cccc(c2)CSC[C@@H](C(=O)NCCOCCOCC(=O)N[C@@H](CCCCNC(=O)CN2CCN(CC(=O)O)CCN(CC(=O)O)CCN(CC(=O)O)CC2)C(N)=O)NC(=O)[C@H](C)NC(=O)[C@H](Cc2c[nH]c3ccccc23)NC(=O)[C@H]([C@@H](C)O)NC(=O)[C@H](CC(C)C)NC(=O)[C@H](Cc2c[nH]c3ccccc23)NC(=O)[C@H](CC(=O)O)NC(=O)[C@H]2CCCN2C(=O)[C@H](CCC(=O)O)NC1=O)C(C)C),isolated mass,[2]; scale 50 μmol,24.15 mg
same,isolated yield,[2]; scale 50 μmol,11.1%
Ac-VYCE[dP]DWLTWE(NH(CH2)3NHDOTA)C-NH2 (linker 3-12 via mXylylene; SMILES CC(=O)N[C@H](C(=O)N[C@@H](Cc1ccc(O)cc1)C(=O)N[C@H]1CSCc2cccc(c2)CSC[C@@H](C(N)=O)NC(=O)[C@H](CCC(=O)NCCCNC(=O)CN2CCN(CC(=O)O)CCN(CC(=O)O)CCN(CC(=O)O)CC2)NC(=O)[C@H](Cc2c[nH]c3ccccc23)NC(=O)[C@H]([C@@H](C)O)NC(=O)[C@H](CC(C)C)NC(=O)[C@H](Cc2c[nH]c3ccccc23)NC(=O)[C@H](CC(=O)O)NC(=O)[C@H]2CCCN2C(=O)[C@H](CCC(=O)O)NC1=O)C(C)C),isolated mass,[2]; scale 50 μmol,11.84 mg
same,isolated yield,[2]; scale 50 μmol,5.8%
DOTA-Gln-[Cys(3MeBn)-Glu-pro-Asp-Aph(SaPr)-Leu-Thr-Trp-Ser-Cys]-NH2,isolated mass,"[2]; scale 50 μmol, thioether ring",9.95 mg
same,isolated yield,"[2]; scale 50 μmol, thioether ring",10.12%
DOTA-PPAc-Gln-[Cys(3MeBn)-Glu-pro-Asp-Af3(Cpsu)-Leu-Thr-Trp-Ser-Cys]-NH2,isolated mass,"[2]; scale 50 μmol, thioether ring",14.00 mg
same,isolated yield,"[2]; scale 50 μmol, thioether ring",13.3%
DOTA-{Glu-[Cys(3MeBn)-Glu-pro-Asp-Af3(Cpsu)-Leu-Thr-Trp-Dap}-Cys]-NH2,isolated mass,[3],5.18 mg
same,isolated yield,[3],5.3%
"PEPTIDE1{[ac].V.Y.C.E.[Nlys].D.W.L.T.W.A.C.[am]}|CHEM1{[3MeBn]}|CHEM2{[DOTA]}$PEPTIDE1,CHEM1,4:R3-1:R1|PEPTIDE1,CHEM1,13:R3-1:R2|PEPTIDE1,CHEM2,6:R3-1:R2$$$V2.0",isolated yield,[2]; scale 50 μmol,17.5%
"PEPTIDE1{[capDOTA].[resAPAc].V.Y.C.E.[dP].[gluNHMe2Nph].W.L.T.W.S.C.[am]}|CHEM1{[L3MeBn]}$PEPTIDE1,CHEM1,5:R3-1:R1|PEPTIDE1,CHEM1,14:R3-1:R2$$$V2.0",isolated mass,[2]; scale 50 μmol,21.88 mg
same,isolated yield,[2]; scale 50 μmol,10.1%
{DOTA}-YCE[dP]KWLEWSC-NH2 (linker 2-11 via mXylylene; lactam 5-8; SMILES CC(C)C[C@@H]1NC(=O)[C@H](Cc2c[nH]c3ccccc23)NC(=O)[C@@H]2CCCCNC(=O)CC[C@H](NC1=O)C(=O)N[C@@H](Cc1c[nH]c3ccccc13)C(=O)N[C@@H](CO)C(=O)N[C@H](C(N)=O)CSCc1cccc(c1)CSC[C@H](NC(=O)[C@H](Cc1ccc(O)cc1)NC(=O)CN1CCN(CC(=O)O)CCN(CC(=O)O)CCN(CC(=O)O)CC1)C(=O)N[C@@H](CCC(=O)O)C(=O)N1CCC[C@@H]1C(=O)N2) [3BP-3934],isolated mass,[2]; scale 100 μmol,12.20 mg
same,isolated yield,[2]; scale 100 μmol,12.2%
{DOTA}-[X2]VDCE[dP]DWLTW[Dap]C-NH2 (lactam 3-12; linker 4-13 via mXylylene; SMILES CC(C)C[C@@H]1NC(=O)[C@H](Cc2c[nH]c3ccccc23)NC(=O)[C@H](CC(=O)O)NC(=O)[C@H]2CCCN2C(=O)[C@H](CCC(=O)O)NC(=O)[C@@H]2CSCc3cccc(c3)CSC[C@@H](C(N)=O)NC(=O)[C@H](CNC(=O)C[C@H](NC(=O)[C@@H](NC(=O)CN3CCC(NC(=O)CN4CCN(CC(=O)O)CCN(CC(=O)O)CCN(CC(=O)O)CC4)CC3)C(C)C)C(=O)N2)NC(=O)[C@H](Cc2c[nH]c3ccccc23)NC(=O)[C@H]([C@@H](C)O)NC1=O),isolated mass,[2]; scale 100 μmol,3.82 mg
same,isolated yield,[2]; scale 100 μmol,2.3%
{DOTA}-[X2]VYCE[dP]DWLTWSC-NH2 (linker 4-13 via mXylylene; SMILES CC(C)C[C@@H]1NC(=O)[C@H](Cc2c[nH]c3ccccc23)NC(=O)[C@H](CC(=O)O)NC(=O)[C@H]2CCCN2C(=O)[C@H](CCC(=O)O)NC(=O)[C@@H](NC(=O)[C@H](Cc2ccc(O)cc2)NC(=O)[C@@H](NC(=O)CN2CCC(NC(=O)CN3CCN(CC(=O)O)CCN(CC(=O)O)CCN(CC(=O)O)CC3)CC2)C(C)C)CSCc2cccc(c2)CSC[C@@H](C(N)=O)NC(=O)[C@H](CO)NC(=O)[C@H](Cc2c[nH]c3ccccc23)NC(=O)[C@H]([C@@H](C)O)NC1=O),isolated mass,[2]; scale 50 μmol,23.0 mg
same,isolated yield,[2]; scale 50 μmol,11.4%
{DOTA}-[X2]VYCE[dP]D[X6]LTWSC-NH2 (linker 4-13 via mXylylene; SMILES CC(C)C[C@@H]1NC(=O)[C@H](Cc2cccc(NC(=O)CCC(=O)O)c2)NC(=O)[C@H](CC(=O)O)NC(=O)[C@H]2CCCN2C(=O)[C@H](CCC(=O)O)NC(=O)[C@@H](NC(=O)[C@H](Cc2ccc(O)cc2)NC(=O)[C@@H](NC(=O)CN2CCC(NC(=O)CN3CCN(CC(=O)O)CCN(CC(=O)O)CCN(CC(=O)O)CC3)CC2)C(C)C)CSCc2cccc(c2)CSC[C@@H](C(N)=O)NC(=O)[C@H](CO)NC(=O)[C@H](Cc2c[nH]c3ccccc23)NC(=O)[C@H]([C@@H](C)O)NC1=O),isolated mass,[2]; scale 50 μmol,14.04 mg
same,isolated yield,[2]; scale 50 μmol,6.7%
{DOTA}-[X2]VYCE[dP]E(NH(1-deoxy-D-glucityl))WLTWSC-NH2 (linker 4-13 via mXylylene; SMILES CC(C)C[C@@H]1NC(=O)[C@H](Cc2c[nH]c3ccccc23)NC(=O)[C@H](CCC(=O)NC[C@H](O)[C@@H](O)[C@H](O)[C@H](O)CO)NC(=O)[C@H]2CCCN2C(=O)[C@H](CCC(=O)O)NC(=O)[C@@H](NC(=O)[C@H](Cc2ccc(O)cc2)NC(=O)[C@@H](NC(=O)CN2CCC(NC(=O)CN3CCN(CC(=O)O)CCN(CC(=O)O)CCN(CC(=O)O)CC3)CC2)C(C)C)CSCc2cccc(c2)CSC[C@@H](C(N)=O)NC(=O)[C@H](CO)NC(=O)[C@H](Cc2c[nH]c3ccccc23)NC(=O)[C@H]([C@@H](C)O)NC1=O),isolated mass,[2]; scale 100 μmol,6.64 mg
same,isolated yield,[2]; scale 100 μmol,2.88%
